From the supplement of paper PMC12823440, “Inhibitors supercharge kinase turnover through native proteolytic circuits” (Nature, 2025)
Structures can show the parent of a compound that is named as a salt. This is one part of the list. Hit calls seldom repeat between salt and free forms of one compound.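 In K562 cells expressing nanoluciferase-fused kinases, luminescence was recorded at 4 h intervals between 2 and 18 h, normalized as percent of control with DMSO at 100% and a positive control at 0%. A significant (2 sigma) signal drop marks a time point as decreased. The authors' rule for a hit is not shown and takes in more than the number of time points.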

Sequences of proteins named here, by UniProt entry; tags and fusion partners are left off. A change or cut given only in a name is not applied to a line headed by its entry.
UniProt Q9UM73: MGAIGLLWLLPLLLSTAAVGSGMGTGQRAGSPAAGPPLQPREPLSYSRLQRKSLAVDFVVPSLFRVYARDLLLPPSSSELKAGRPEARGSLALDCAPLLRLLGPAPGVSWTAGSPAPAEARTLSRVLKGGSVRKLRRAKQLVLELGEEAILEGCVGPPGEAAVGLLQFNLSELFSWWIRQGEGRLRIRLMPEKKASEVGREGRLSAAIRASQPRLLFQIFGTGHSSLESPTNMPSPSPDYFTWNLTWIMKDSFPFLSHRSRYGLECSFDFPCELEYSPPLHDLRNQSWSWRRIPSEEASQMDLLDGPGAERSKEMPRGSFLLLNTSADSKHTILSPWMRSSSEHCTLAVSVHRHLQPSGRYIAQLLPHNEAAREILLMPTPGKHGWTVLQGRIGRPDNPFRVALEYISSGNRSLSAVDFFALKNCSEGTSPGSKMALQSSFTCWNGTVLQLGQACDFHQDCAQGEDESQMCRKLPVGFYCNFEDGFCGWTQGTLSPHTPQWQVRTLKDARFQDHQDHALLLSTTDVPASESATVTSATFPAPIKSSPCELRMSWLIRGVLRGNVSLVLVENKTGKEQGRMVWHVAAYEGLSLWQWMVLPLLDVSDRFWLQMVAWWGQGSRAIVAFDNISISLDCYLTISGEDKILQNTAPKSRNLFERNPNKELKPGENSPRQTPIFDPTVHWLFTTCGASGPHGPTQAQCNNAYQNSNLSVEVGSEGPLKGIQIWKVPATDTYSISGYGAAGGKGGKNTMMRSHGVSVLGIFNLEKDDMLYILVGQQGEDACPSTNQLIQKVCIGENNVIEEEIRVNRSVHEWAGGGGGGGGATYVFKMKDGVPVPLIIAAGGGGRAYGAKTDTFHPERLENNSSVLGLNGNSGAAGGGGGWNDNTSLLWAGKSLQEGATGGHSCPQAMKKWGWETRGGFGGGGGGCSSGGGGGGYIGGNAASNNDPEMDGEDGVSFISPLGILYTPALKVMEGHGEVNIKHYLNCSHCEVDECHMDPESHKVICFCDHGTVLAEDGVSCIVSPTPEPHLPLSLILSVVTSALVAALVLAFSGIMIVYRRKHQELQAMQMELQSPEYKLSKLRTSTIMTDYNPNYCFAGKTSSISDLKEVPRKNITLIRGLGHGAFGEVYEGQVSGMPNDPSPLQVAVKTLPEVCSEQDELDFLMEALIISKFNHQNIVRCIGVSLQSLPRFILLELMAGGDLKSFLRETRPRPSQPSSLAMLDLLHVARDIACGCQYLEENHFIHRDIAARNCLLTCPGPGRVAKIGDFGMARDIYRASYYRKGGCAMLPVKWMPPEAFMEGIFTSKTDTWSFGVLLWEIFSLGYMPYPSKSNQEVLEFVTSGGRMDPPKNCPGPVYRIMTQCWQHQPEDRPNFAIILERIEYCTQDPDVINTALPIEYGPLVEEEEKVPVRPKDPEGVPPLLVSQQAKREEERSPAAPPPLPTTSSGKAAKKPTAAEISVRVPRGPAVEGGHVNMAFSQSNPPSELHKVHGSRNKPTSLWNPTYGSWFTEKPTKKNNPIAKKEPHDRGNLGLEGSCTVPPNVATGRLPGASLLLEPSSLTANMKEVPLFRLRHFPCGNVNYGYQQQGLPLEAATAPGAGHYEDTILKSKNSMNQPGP
UniProt P10398: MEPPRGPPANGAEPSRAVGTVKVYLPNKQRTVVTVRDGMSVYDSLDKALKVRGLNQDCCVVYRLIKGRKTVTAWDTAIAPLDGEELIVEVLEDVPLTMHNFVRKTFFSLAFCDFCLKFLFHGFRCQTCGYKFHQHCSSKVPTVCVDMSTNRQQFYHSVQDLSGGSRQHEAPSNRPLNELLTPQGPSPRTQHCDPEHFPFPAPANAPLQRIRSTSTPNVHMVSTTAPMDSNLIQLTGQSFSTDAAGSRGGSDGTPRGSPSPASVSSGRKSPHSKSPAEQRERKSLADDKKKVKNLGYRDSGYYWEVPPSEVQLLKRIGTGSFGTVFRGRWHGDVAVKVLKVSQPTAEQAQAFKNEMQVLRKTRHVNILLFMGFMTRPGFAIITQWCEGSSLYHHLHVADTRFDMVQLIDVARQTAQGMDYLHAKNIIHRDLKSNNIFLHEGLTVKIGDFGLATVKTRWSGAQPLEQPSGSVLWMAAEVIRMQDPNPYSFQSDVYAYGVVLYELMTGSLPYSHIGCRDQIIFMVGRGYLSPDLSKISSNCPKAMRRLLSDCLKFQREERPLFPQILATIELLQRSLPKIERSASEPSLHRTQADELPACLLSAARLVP
UniProt O14965: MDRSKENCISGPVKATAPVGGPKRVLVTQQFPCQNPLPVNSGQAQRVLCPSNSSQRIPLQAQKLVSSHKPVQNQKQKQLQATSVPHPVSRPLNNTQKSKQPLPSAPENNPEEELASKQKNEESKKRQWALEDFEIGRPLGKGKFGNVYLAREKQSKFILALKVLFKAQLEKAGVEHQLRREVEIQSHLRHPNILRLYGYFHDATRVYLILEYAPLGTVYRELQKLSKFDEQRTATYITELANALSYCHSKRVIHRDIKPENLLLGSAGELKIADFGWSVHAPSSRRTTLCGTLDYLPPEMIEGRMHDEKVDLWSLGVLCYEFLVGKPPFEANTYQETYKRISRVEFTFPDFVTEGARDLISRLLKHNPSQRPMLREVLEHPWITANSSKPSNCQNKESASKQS
UniProt P51451: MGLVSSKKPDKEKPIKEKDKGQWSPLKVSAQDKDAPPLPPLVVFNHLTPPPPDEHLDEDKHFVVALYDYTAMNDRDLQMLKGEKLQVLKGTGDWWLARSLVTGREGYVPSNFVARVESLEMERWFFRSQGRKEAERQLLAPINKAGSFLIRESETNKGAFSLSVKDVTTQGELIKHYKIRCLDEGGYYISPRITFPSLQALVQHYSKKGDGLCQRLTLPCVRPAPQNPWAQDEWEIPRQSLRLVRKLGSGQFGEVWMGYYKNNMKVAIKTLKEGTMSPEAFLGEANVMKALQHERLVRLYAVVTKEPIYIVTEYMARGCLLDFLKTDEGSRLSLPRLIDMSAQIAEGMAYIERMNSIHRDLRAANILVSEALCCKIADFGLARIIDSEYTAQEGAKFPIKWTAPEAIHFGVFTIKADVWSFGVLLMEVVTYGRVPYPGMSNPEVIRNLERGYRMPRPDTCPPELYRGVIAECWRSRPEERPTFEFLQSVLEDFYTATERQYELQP
UniProt Q06187: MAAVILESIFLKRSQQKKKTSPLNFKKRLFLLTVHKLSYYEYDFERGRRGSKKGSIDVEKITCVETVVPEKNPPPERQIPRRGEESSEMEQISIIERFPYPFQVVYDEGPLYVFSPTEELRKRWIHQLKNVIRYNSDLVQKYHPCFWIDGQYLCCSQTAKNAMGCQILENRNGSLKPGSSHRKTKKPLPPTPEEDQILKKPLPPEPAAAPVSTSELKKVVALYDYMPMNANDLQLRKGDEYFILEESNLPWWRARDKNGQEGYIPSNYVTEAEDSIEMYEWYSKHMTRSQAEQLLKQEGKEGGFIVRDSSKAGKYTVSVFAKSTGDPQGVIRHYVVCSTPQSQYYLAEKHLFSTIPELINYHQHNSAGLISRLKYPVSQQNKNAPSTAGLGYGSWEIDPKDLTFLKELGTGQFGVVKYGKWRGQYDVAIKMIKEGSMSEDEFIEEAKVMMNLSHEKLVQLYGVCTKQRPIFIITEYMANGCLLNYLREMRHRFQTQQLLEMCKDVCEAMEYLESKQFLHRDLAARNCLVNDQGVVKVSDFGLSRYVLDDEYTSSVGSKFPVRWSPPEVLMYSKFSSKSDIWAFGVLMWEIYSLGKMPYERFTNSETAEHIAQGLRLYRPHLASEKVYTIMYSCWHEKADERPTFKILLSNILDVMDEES
UniProt Q9UQM7, whole entry: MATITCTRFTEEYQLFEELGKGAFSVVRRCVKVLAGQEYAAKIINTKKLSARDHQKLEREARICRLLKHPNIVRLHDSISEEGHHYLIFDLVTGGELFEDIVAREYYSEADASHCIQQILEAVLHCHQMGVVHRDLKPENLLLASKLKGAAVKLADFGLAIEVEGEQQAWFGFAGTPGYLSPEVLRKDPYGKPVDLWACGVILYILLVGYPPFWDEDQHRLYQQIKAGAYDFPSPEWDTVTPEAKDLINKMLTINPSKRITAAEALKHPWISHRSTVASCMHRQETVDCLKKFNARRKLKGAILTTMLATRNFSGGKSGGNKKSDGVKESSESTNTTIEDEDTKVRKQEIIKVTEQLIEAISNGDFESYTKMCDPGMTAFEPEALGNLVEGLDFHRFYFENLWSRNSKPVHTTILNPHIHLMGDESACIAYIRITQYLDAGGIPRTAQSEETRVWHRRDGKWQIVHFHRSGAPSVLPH
UniProt Q15131: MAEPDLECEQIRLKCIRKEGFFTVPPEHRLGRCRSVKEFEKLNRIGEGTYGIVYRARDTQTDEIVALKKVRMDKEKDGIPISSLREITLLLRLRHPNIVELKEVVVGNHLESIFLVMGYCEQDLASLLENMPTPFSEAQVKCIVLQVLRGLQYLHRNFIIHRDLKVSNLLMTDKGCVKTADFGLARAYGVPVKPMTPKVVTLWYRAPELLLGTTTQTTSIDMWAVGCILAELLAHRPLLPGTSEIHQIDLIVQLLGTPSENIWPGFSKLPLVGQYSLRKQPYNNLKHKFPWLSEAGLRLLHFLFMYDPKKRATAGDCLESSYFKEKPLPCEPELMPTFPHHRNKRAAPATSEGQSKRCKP
UniProt Q00526: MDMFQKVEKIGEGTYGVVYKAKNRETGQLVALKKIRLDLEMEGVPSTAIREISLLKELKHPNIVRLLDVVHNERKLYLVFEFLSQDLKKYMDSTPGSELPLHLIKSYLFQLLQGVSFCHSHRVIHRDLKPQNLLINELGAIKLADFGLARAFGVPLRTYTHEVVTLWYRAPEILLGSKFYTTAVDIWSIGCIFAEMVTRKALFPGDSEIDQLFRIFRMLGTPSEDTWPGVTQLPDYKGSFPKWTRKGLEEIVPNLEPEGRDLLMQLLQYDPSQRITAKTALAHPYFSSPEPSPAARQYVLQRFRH
UniProt O96017, whole entry: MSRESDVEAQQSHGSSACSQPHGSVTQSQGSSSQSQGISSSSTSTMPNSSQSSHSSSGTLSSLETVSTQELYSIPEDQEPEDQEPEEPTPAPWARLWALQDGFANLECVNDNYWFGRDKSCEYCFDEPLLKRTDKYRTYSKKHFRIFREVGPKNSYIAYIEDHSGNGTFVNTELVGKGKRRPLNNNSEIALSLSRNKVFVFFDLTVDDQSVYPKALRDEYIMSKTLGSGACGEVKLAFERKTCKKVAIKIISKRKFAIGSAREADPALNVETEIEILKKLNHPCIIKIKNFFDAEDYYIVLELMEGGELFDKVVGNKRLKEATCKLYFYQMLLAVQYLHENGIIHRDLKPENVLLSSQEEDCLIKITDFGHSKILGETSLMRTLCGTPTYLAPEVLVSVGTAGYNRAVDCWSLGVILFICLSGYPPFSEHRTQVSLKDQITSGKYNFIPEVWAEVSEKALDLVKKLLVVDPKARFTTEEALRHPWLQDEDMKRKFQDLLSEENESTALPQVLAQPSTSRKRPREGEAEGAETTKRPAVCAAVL
UniProt P07333, whole entry: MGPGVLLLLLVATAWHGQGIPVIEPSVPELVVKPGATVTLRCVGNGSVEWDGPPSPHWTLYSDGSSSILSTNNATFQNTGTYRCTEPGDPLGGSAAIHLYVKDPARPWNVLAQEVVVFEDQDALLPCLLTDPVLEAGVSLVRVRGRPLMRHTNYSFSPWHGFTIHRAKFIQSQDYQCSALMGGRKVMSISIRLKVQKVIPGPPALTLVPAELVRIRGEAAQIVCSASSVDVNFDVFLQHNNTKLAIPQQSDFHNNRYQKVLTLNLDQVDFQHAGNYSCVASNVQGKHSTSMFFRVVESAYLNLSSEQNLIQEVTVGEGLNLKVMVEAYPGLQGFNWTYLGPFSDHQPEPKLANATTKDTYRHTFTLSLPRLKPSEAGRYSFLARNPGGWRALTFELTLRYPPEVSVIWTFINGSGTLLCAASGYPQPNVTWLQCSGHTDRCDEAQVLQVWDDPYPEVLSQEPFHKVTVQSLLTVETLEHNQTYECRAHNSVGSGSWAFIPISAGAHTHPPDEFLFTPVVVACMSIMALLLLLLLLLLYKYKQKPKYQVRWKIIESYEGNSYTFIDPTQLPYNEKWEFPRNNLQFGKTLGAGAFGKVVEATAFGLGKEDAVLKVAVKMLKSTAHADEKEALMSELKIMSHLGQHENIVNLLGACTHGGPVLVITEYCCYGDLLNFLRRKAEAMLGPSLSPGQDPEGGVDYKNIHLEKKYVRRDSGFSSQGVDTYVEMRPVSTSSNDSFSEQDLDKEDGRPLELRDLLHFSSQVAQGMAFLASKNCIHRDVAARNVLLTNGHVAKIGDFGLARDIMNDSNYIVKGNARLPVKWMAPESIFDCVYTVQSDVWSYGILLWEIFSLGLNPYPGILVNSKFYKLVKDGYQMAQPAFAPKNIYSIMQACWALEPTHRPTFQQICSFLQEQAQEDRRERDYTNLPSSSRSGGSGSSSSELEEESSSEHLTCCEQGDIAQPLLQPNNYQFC

How the values were obtained:
Assay in all cases: number of time points (of 5) at which kinase-Nluc abundance scored as decreased, DMSO-normalised (count); higher = more persistent destabilization
Conditions in all cases: K562; 2-18 h
[1] = molecular target: ALK (UniProt Q9UM73)
[2] = molecular target: ARAF (UniProt P10398)
[3] = molecular target: AURKA (UniProt O14965)
[4] = molecular target: AURKB (UniProt Q96GD4)
[5] = molecular target: AURKC (UniProt Q9UQB9)
[6] = molecular target: BLK (UniProt P51451)
[7] = molecular target: BMX (UniProt P51813)
[8] = molecular target: BRAF (UniProt P15056)
[9] = system: BRAF_V600E
[10] = molecular target: BTK (UniProt Q06187)
[11] = molecular target: CAMK2A (UniProt Q9UQM7)
[12] = molecular target: CAMK2G (UniProt Q13555)
[13] = molecular target: CDK10 (UniProt Q15131)
[14] = molecular target: CDK2 (UniProt P24941)
[15] = molecular target: CDK3 (UniProt Q00526)
[16] = molecular target: CDK5 (UniProt Q00535)
[17] = molecular target: CDK6 (UniProt Q00534)
[18] = molecular target: CHEK2 (UniProt O96017)
[19] = molecular target: CSF1R (UniProt P07333)
[20] = molecular target: CSK (UniProt P41240)

Measured: number of time points

COCCOc1cnc2ccn([C@H](C)c3nnc4c(F)cc(-c5cnn(C)c5)cn34)c(=O)c2c1 (10 µM)
0: all assays above

O=C(O)c1c[nH]c2cc(Cl)c(-c3ccc(C4(O)CCC4)cc3)cc12 (10 µM)
0: all assays above

O=C(Nc1ccc(Cl)cc1)C1CN(C(=O)c2cccc(-c3ccco3)c2)CC(F)(F)C1 (stereo not given) (2.5 µM)
0: all assays above

Cn1cc(-c2nc(N[C@@H]3CCCC[C@@H]3N)c(F)c3c2C(=O)NC3)cn1 [TAK-659 (hydrochloride)] (2 µM)
0: all assays above

NCCNS(=O)(=O)c1ccc(Cl)c2ccncc12 [CKI-7 (free base)] (10 µM)
0: all assays above

Cc1cc(N2CCOCC2)ccc1Nc1nc(NC2CCCCC2)c2[nH]cnc2n1 (10 µM)
0: all assays above

Cc1nc(NC(=O)N2CCC[C@H]2C(N)=O)sc1-c1ccnc(C(C)(C)C(F)(F)F)c1 [Alpelisib] (2.5 µM)
0: all assays above

CC(=O)O[C@@H]1[C@@H](OC(C)=O)[C@@H](O)[C@H](Oc2c(-c3ccc(O)cc3)oc3cc(O)cc(O)c3c2=O)O[C@H]1C (10 µM)
0: all assays above

Cc1ncc(-c2cc(F)c(O)c(F)c2)cc1-c1cc(F)c(O)c(F)c1 (10 µM)
0: all assays above

COc1ccc(-c2cc(=O)c3c(O)cc(O)cc3o2)cc1-c1c(O)cc(O)c2c(=O)cc(-c3ccc(O)cc3)oc12 [Bilobetin] (2.5 µM)
0: all assays above

Fc1ccc(-c2nc3n(c2-c2ccncc2)CCS3)cc1 (10 µM)
0: all assays above

CN1CCN(c2ccc(-n3cc(-c4ccncc4OCC4CCNCC4)cn3)cc2)CC1 [MELK-8a (hydrochloride)] (10 µM)
3: [3] | [4] | [6] | [8] | [9] | [18] | [19]
4: [7]
0: all other assays above

Nc1ccc(-c2cccc(C(=O)Nc3cnc4nc(N5CCOCC5)oc4c3)n2)cn1 (10 µM)
4: [3]
0: all other assays above

Reprinted from the results shown, 2 compounds:
CN1CCN(c2ccc(-n3cc(-c4ccncc4OCC4CCNCC4)cn3)cc2)CC1 [MELK-8a (hydrochloride)] (10 µM)
3: [3] | [4] | [6] | [8] | [9] | [18] | [19]
4: [7]
0: all other assays above

Nc1ccc(-c2cccc(C(=O)Nc3cnc4nc(N5CCOCC5)oc4c3)n2)cn1 (10 µM)
4: [3]
0: all other assays above

(continued)

COc1cc(Nc2ccnc3ccc(Br)cc23)cc(OC)c1OC (2.5 µM)
1: [1] | [12] | [18]
0: all other assays above

O=C(O)/C=C(\CCc1ccc(Cl)cc1)c1ccccc1 (10 µM)
0: all assays above

O=c1c(O)c(-c2ccc(O)c(O)c2)oc2cc(O)c(O)c(O)c12 [Quercetagetin] (10 µM)
0: all assays above

CO[C@@H]1[C@H](N(C)C(=O)c2ccccc2)C[C@H]2O[C@]1(C)n1c3ccccc3c3c4c(c5c6ccccc6n2c5c31)C(=O)NC4 [Midostaurin] (2.5 µM)
3: [8]
1: [9]
0: all other assays above

CC(C)n1c(CO)nc2c(F)cc(-c3nc(Nc4ccc(CN5CCNCC5)cn4)ncc3F)cc21 (10 µM)
3: [1] | [3] | [6] | [9] | [12] | [18]
4: [4] | [7]
2: [19]
0: all other assays above

Cn1cc(C2=C(c3ccc(Cl)cc3Cl)C(=O)NC2=O)c2ccccc21 (10 µM)
0: all assays above

COCCNc1cc(NC(=O)N2CCCc3cc(CN4CCOCC4=O)c(C=O)nc32)ncc1C#N (10 µM)
0: all assays above

C[C@H](Nc1cc2c(-c3ccc4c(c3)OCO4)noc2cn1)c1ccccc1 (10 µM)
0: all assays above

O=C(CCl)c1c[nH]c2ccccc12 (2.5 µM)
0: all assays above

Nc1ccc(C(=O)Nc2cccc(-c3nc(N4CCOCC4)c4oc5ncccc5c4n3)c2)cn1 (10 µM)
1: [9]
0: all other assays above

CN(C)C(=O)c1cc2cnc(Nc3ccc(N4CCN(CCCCNC(=O)COc5cccc6c5C(=O)N(C5CCC(=O)NC5=O)C6=O)CC4)cn3)nc2n1C1CCCC1 (stereo not given) (10 µM)
0: all assays above
